Among all 310,000 compounds or so, about 17,000 (5.5%) were called active. The shares of active, inactive and inconclusive entries below differ from those in the screen. Calls follow the shape of the dose curve; as a rule, active = well fitted inhibition curve with a large enough effect; inconclusive = small, poorly fitted or top-dose-only effect, or effect the other way; inactive = no such curve, though single readings can be large or run the other way. Where the call is inconclusive, the potency comes from a doubtful curve fit.
What follows are compounds tested against Nuclear receptor ROR-gamma (Mus musculus) (UniProt P51450) (assay: qHTS for inhibitors of ROR gamma transcriptional activity). Settings: Drosophila S2 Gal4-RORgamma UAS-luciferase reporter, 20 h; activity change, negative = inhibition: at 53.6 µM (top of the series).
How it was run: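 Stably transfected Drosophila Schneider cells are the test system, with ROR gamma fused to Gal4 and luciferase under UAS control; luminescence is read after 20 hr of 700 uM copper sulfate induction at ambient temperature.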
% is scaled to controls: 0 for no effect and ±100 for the full control effect; potency is read from the fitted curve at half-maximal effect.
Also: nearly all actives have a fitted effect of over 60% in size.

Chains of the proteins cited; added tags and fusions are not shown. Lines headed by an entry give the natural chain unless they say otherwise; changes in a name come on top.
UniProt P51450: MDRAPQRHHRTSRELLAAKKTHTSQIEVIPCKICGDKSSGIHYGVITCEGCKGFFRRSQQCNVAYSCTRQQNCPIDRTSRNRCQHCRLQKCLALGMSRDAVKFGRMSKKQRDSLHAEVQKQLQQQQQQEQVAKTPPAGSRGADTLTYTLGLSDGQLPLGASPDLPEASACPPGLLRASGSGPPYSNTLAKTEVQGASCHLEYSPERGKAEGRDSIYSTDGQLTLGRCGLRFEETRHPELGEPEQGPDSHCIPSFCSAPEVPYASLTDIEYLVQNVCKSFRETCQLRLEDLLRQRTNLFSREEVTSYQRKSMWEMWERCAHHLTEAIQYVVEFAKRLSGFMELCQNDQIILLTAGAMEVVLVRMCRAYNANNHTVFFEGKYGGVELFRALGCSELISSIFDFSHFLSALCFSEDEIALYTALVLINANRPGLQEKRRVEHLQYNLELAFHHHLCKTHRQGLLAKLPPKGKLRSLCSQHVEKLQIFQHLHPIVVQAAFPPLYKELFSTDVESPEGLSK

SMILES | Potency | activity change, negative = inhibition
O=C1CC(c2ccc(F)cc2)Sc2nc(C34CC5CC(CC(C5)C3)C4)nn21 (centres undefined) | inconclusive: 28.2 µM [inhibitor, single point] | 
N#CC1=C(N)N2C(=C(C#N)C13CCCC3)Nc1ccccc12 |  | inactive: 37%
CCOc1ccc(NC(=S)NC(=O)c2ccco2)cc1 | active: 6.31 µM | 
O=C(Nc1ccc(S(=O)(=O)N2CCCCC2c2cccnc2)cc1)c1ccccc1F (centres undefined) | inconclusive: 35.5 µM [inhibitor, single point] | 
CCC1CCCCN1Cc1ccc(OC)c(OC)c1 (centres undefined) | inconclusive: 2.24 µM [inhibitor, partial curve] | 
CCc1ccc(NC2=NCC(c3ccccc3)S2)cc1 (centres undefined) | active: 8.91 µM | 
Cc1nc(NC(=O)C2CC2)sc1C(=O)Nc1cccc(Cl)c1 | inconclusive: 20 µM [activator, partial curve] | 
COc1ccc(OC(=O)c2cccc([N+](=O)[O-])c2)c(C(=O)/C=C/c2cccs2)c1 |  | inactive: -24.2%
N#Cc1c(NC(=O)c2ccccc2Cl)n(Cc2ccccc2)c2nc3ccccc3nc12 | inconclusive: 17.8 µM [activator, partial curve] | 
C/C(CCC(C)C)=N\NC(=S)NCc1ccccc1 | active: 3.98 µM | 
CC(NC(=O)c1cnc2ccccc2n1)c1ccccc1 (centres undefined) | inconclusive: 10 µM [activator, partial curve] | 
O=C(Nc1ccc(NC(=O)c2ccncc2)cc1)c1ccncc1 |  | inactive: 12.8%
CC(C)(C)OC(=O)N1CCN(c2ccc(NC(=O)Cn3nnc(-c4ccccc4)n3)cc2)CC1 | inconclusive: 0.1 µM [activator, full curve, poor fit] | 
O=C(CSc1nnc(-c2ccncc2)n1-c1ccccc1)N1CCN(c2ccc(Cl)cc2)CC1 |  | inactive: -7.72%
Cc1cc(Cl)ccc1Oc1ccccc1C(=O)CC#N | inconclusive: 22.4 µM [activator, partial curve, poor fit] | 
CC[n+]1c(/C=C(\C)SC)sc2ccccc21 | inconclusive: 35.5 µM [inhibitor, single point] | 
COc1ccc(C(=O)Nc2ccccc2C(=O)N/N=C/c2ccc(O)c(OC)c2)cc1 | active: 0.199 µM | 
C#CC(C)OC(=O)Nc1cccc(Cl)c1 (centres undefined) | inconclusive: 35.5 µM [activator, single point] | 
COc1ccc(-c2ccc(/C=N/N3C(=O)C4C5C=CC(C6CC56)C4C3=O)o2)c([N+](=O)[O-])c1 (centres undefined) | inconclusive: 17.8 µM [activator, partial curve] | 
CN(C)C(=O)c1cc([N+](=O)[O-])cc([N+](=O)[O-])c1N(C)C | inconclusive: 5.62 µM [activator, single point] | 
CC(C)c1ccc(NC(=O)COC(=O)C2=COCCO2)cc1 | inconclusive: 17.8 µM [activator, partial curve] | 
COCc1n[nH]c(=S)n1-c1cccc2ccccc12 | inconclusive: 11.2 µM [inhibitor, single point] | 

SMILES | Potency | activity change, negative = inhibition
Cc1[nH]n(-c2ccccc2)c(=O)c1-c1ccccc1 |  | inactive: 48.9%
Cc1ccc(C(=O)Nc2ccc(Cl)cc2C(F)(F)F)c(Cl)c1 |  | inactive: 33.1%
CCOC(=O)N1CCC(n2c(SCC(=O)NCCC3=CCCCC3)nc3ccccc3c2=O)CC1 | inconclusive: 35.5 µM [inhibitor, single point] | 
COc1ccc(/C=C/C(=O)Nc2ccc3c(c2)CCC3)cc1OC | inconclusive: 0.251 µM [inhibitor, full curve, poor fit] | 
C#CCN1C(=O)S/C(=C\c2ccc(-c3ccc(C(=O)O)cc3C)o2)C1=O | inconclusive: 4.47 µM [activator, single point] | 
CCCc1nn(-c2ccccc2)c2c1C(c1cccs1)C(C#N)=C(N)O2 (centres undefined) | active: 12.6 µM | 
C/C(=C\C(=O)c1ccc(C)cc1)Nc1cccc(O)c1 | active: 6.31 µM | 
Cn1cnnc1SCC(=O)Nc1ccc2nc(SCc3ccccc3Cl)sc2c1 | inconclusive: 4.47 µM [activator, full curve] | 
COc1cc([N+](=O)[O-])cc(/C=N/NC(=O)c2cncc(Br)c2)c1O | active: 2.82 µM | 
COc1ccc(C(=O)N/N=C/c2cc(Br)ccc2O)cc1OC | active: 3.16 µM | 
CN(C)S(=O)(=O)c1cccc(NC(=O)COC(=O)c2cn(-c3ccccc3)nc2-c2ccccc2)c1 | inconclusive: 2 µM [activator, partial curve] | 
CCCCCC1CC(CC(=O)NC(=S)Nc2ccccc2Cl)C(=O)O1 (centres undefined) | inconclusive: 17.8 µM [inhibitor, partial curve, poor fit] | 
COc1ccc2oc(C(=O)c3ccccc3)c(NC(=O)CN3CCN(C)CC3)c2c1 | inconclusive: 35.5 µM [inhibitor, single point] | 
COc1cccc(OCc2ccc(C(=O)NCC3CCCO3)cc2)c1 (centres undefined) | inconclusive: 17.8 µM [activator, partial curve] | 
Cc1ccc(-c2nn(C(C)(C)C)c3ncnc(N)c23)cc1 | inconclusive: 12.6 µM [inhibitor, partial curve, poor fit] | 
Cc1cccn2c(=O)c3cc(C(=O)NCCN4CCOCC4)c(=N)n(Cc4cccnc4)c3nc12 | inconclusive: 12.6 µM [activator, partial curve] | 
c1csc(-c2nnc(NC3CCCCC3)c3ccccc23)c1 | inconclusive: 12.6 µM [activator, single point] | 
CCn1c(COc2ccccc2OC)nc2ccccc21 | active: 12.6 µM | 
CCn1cc(SCC(=O)N2CCc3ccccc32)c2ccccc21 | inconclusive: 7.08 µM [activator, partial curve, poor fit] | 
c1cncc(-c2nc(NCc3ccco3)c3ccccc3n2)c1 | inconclusive: 31.6 µM [inhibitor, single point] | 
COc1ccc(N2C(=O)C(Cl)=C(Nc3ccc(OC)cc3OC)C2=O)cc1 | inconclusive: 3.55 µM [activator, partial curve] | 
COc1ccc(OCc2cc(C(=O)NCC(C)Oc3cccnc3)no2)c(Cl)c1 (centres undefined) | inconclusive: 17.8 µM [activator, partial curve] | 

Looked up by structure from above (three):
SMILES | Potency | activity change, negative = inhibition
C/C(=C\C(=O)c1ccc(C)cc1)Nc1cccc(O)c1 | active: 6.31 µM | 
Cc1ccc(C(=O)Nc2ccc(Cl)cc2C(F)(F)F)c(Cl)c1 |  | inactive: 33.1%
COc1ccc2oc(C(=O)c3ccccc3)c(NC(=O)CN3CCN(C)CC3)c2c1 | inconclusive: 35.5 µM [inhibitor, single point] | 

From PubChem BioAssay AID2551 (National Center for Advancing Translational Sciences (NCATS), 2010)
